Reference: US10232020B2 (priority 2014, dated 2019)

Test: solid-phase peptide synthesis
Conditions: whole synthesis

With HSQGTFTSDYSKYLDSRRAQDFVQWLMNTGPSSGAPPPS as the sequence, how does the “final HPLC purity” value (RP-HPLC (214 nm or 220 nm), MALDI or ESI mass spectrometry, scale of the general procedure 0.2 mmole (Boc), 0.1 mmol (Fmoc)) read?
The value was “greater than 95%”.

What about the isolated mass (scale 0.2 mmol) of the same sequence?
The isolated mass was 198.1 mg.

Plain letter strings leave the end groups untold.
